In US20030083239A1, “Chemokine receptor CCR3 antagonists” (priority 1999, published 2003):
These are yes or no findings as the source states them, for the method shown. Some entries that bind do so weakly or less than the wild type.

Target: T1, CCR3 transfected in 293 cells (UniProt P51677)
T1 sequence (looked up): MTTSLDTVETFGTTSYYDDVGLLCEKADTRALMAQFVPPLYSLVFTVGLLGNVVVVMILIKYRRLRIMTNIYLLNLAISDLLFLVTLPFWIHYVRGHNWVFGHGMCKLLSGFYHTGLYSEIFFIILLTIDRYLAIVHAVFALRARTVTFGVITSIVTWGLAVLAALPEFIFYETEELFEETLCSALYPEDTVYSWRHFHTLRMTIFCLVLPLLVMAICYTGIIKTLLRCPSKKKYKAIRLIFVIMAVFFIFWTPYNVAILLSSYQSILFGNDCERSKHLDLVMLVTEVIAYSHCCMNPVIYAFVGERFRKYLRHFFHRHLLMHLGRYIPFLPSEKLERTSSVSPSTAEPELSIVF
Assay: 125I-eotaxin competition binding on 293 cells transfected with CCR3

binding: binds
Binder: CRCAAR [hexamer peptide CRCAAR (SEQ ID NO: 1), peptide SC004411]
